# Library screen at single concentrations

Sequences of proteins named here, by UniProt entry; tags and fusion partners are left off. Residues count along the entry.
UniProt Q4DA54, 1-478: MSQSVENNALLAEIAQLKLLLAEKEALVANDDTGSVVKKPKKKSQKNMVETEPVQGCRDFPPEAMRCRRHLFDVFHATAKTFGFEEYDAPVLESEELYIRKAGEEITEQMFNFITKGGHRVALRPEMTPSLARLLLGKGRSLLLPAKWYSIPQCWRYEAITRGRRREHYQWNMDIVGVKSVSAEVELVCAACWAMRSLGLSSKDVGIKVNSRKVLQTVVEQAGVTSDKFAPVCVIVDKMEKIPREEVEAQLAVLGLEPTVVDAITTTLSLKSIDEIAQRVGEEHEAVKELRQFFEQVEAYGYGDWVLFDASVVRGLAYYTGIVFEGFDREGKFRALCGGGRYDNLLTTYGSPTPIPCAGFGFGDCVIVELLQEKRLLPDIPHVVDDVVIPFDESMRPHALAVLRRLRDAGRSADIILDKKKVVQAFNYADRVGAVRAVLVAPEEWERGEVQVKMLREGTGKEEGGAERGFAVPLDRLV
UniProt A4I591, 1-473: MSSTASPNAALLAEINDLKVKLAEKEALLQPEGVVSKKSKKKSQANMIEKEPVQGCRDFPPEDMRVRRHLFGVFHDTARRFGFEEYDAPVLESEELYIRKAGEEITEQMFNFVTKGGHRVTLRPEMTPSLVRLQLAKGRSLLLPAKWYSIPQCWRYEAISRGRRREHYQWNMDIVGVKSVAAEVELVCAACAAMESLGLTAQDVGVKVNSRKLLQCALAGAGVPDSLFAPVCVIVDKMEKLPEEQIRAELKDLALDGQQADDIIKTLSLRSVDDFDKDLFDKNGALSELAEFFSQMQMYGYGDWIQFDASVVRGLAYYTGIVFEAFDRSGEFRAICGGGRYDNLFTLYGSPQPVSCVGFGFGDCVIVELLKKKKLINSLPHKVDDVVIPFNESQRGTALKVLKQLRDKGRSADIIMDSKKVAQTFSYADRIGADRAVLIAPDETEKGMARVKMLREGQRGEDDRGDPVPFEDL
UniProt P9WPC5, whole entry: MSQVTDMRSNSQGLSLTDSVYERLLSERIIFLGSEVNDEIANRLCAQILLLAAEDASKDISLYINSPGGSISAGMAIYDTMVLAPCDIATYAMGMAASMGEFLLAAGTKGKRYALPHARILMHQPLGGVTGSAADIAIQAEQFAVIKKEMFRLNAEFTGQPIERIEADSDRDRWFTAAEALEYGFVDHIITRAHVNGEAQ
UniProt P9WPC3, whole entry partner: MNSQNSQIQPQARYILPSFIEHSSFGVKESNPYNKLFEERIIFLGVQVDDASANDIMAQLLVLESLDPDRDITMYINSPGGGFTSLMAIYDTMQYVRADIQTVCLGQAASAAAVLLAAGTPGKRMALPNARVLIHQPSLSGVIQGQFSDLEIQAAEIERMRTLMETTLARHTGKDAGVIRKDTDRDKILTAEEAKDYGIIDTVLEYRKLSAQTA

From ChEMBL document CHEMBL3988442, “University of Dundee, Small-Polar-MMV Screening Library” (2021).

The filed quantity is “Percent Effect” (%).
The controls that fix the scale are not given in the record; negative values are as filed.
Compounds were drawn at random from those tested, without regard to their results.
A dash means the value is not listed here; it may have been measured.

Toxoplasma: 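Assay of Toxoplasma gondii numbers, read through their beta-galactosidase reporter with a colour substrate. Concentration: 10 µM. The record gives no direction; the compounds picked for IC50 retests had high values, so higher reads as fewer parasites. Size under these conditions: about 67,000 compounds, about 260 of them at 50% or above in at least one test.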
Leishmania in macrophages: 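Cell assay of Leishmania donovani living inside macrophages; the read-out is not stated. Compounds at 30 µM. Direction is inferred from retests: higher values go with stronger inhibition. About 69,000 compounds were tested under these conditions; 1.5% (about 1,000) showed 50% or more at least once.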
TcHisRS: 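Histidine-tRNA ligase, Trypanosoma cruzi CL Brener (UniProt Q4DA54). Enzyme assay of histidyl-tRNA synthetase; the read-out is not stated. Concentration: 30 µM. Direction is inferred from retests: higher values go with stronger inhibition. About 69,000 compounds were tested under these conditions; 0.045% (about 31) showed 50% or more at least once.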
LiHisRS: 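Enzyme assay of histidyl-tRNA synthetase; the read-out is not stated. Target: Histidine-tRNA ligase, Leishmania infantum (UniProt A4I591). Tested at 30 µM. Higher reads as stronger inhibition (inferred: compounds with an IC50 in retests scored well above the rest). The assay is labelled LdHisRS but filed under L. infantum. About 69,000 compounds were tested under these conditions; 0.6% (about 410) showed 50% or more at least once.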
ClpP1P2: 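ClpP1P2, Mycobacterium tuberculosis (UniProt P9WPC5 and UniProt P9WPC3). Protease assay of ClpP1P2, read by the AMC dye that it sets free. Compounds at 50 µM. Direction is inferred from only a few compounds that gave an IC50; most scored high, so higher reads as stronger inhibition. Most other retested compounds had strongly negative values. About 69,000 compounds were tested under these conditions; 0.015% (about 10) showed 50% or more at least once.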
T. brucei: 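Whole-parasite assay of Trypanosoma brucei over 72 hours; the read-out is not stated. Concentration: 30 µM. The record gives no direction; compounds that gave an IC50 in retests scored well above the rest, so higher reads as stronger inhibition. Values scatter widely below zero; nearly all retest evidence comes from the higher of the two concentrations used. About 64,000 compounds were tested under these conditions; 1.5% (about 940) showed 50% or more at least once.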

Compound | Toxoplasma | Leishmania in macrophages | TcHisRS | LiHisRS | ClpP1P2 | T. brucei
Cc1ccc(CN2CCc3ncnc(-c4ccoc4)c3CC2)o1 | - | - | 6.542 | 16.67 | -17.63 | -
O=C(O)C(F)(F)F.[H][C@@]12CCN(CC(=O)NC)C[C@]1([H])CN(C(=O)c1cccc(C)c1)C2 | 11.29 | 4.203 | - | - | - | -49.02
O=C(NC1CCCc2nc(N3CCOCC3)ncc21)C1CCCCC1 (configuration not stated) | 6.494 | 2.157 | 0 | -90.62 | -0.2786 | -7.947
Cc1ccc(CN2CCC3(CC2)C(=O)N(C)c2ccccc23)s1 | - | - | 8.021 | 21.15 | 3.379 | -
CC(C)=CCN(C)C1CCCN(Cc2noc(C)n2)C1 (configuration not stated) | -1.831 | -17.7 | 2.682 | 15.38 | 15.65 | -41.06
Cc1cc(-c2nc(-c3ccccn3)nn2C2CCN(C)CC2)nc(C)n1 | 8.545 | 24.22 | 3.784 | 8.219 | -8.209 | -49.46
O=C(O)C(F)(F)F.O=C(O)C(F)(F)F.[H][C@@]12CN(CCOC)CCO[C@]1([H])CN(Cc1ccc(C)s1)C2 | -4.477 | 14.29 | - | - | - | -53.67
[H][C@@]12CCCO[C@]1([H])[C@H](N1CCN(C)CC1)CN2C(=O)c1ccsc1 | 8.707 | 4.658 | - | - | - | -10.54
COCC1CN(Cc2cc(C)on2)Cc2cn(C)nc21 (configuration not stated) | 4.38 | -16.51 | 4.865 | 13.21 | -4.923 | -2.373
Cc1cnn(CC2CCCCN2C(=O)Cc2c(C)noc2C)c1 (configuration not stated) | -4.492 | 5.79 | 5 | 4.11 | -4.303 | 8.146
CC[C@H]1CN2CC[C@H]1C[C@@H]2CNCc1ccc(OC)cc1 | - | - | 12.87 | 25 | -9.731 | -
NC(=O)CN1CCC(c2csc(Nc3cnccn3)n2)CC1 | -4.669 | 4.988 | 3.143 | 12.08 | -15.32 | 30.88
O=C(C1CCC1)N1C[C@H]2CNC[C@H]2C1 | - | - | 0.9709 | -5.769 | 6.103 | -
O=C(C1CC(=O)N(c2n[nH]c3cc(Br)ccc23)C1)N1CCSCC1 (configuration not stated) | - | -11.43 | -20.79 | 23.91 | -5.296 | 12.44
N#Cc1cccc(C(=O)N2CCc3ncc(Cn4cccn4)n3CC2)c1 | -0.5342 | -31.05 | 2.703 | 5.66 | 1.466 | -0.2308
O=C(O)C(F)(F)F.[H][C@]12CCCN(Cc3cccs3)[C@@]1([H])CN(C(=O)c1ccco1)C2 | -10.71 | -14.09 | - | - | - | -38.92
Cn1cc(CN2CCc3c(CNC(=O)C4CC4)cncc3C2)cn1 | - | - | 7.921 | 28.77 | -5.114 | -
CNC(=O)C(C)(C)N1CCC[C@H]1C(=O)NCCN1CCCC1 | - | - | 2.97 | -2.778 | 1.338 | -
O=C(O)C(F)(F)F.O=C(O)C(F)(F)F.[H][C@]12CCCC(OCc3cccnc3)[C@@]1([H])CN(C(=O)c1ccc(C)nc1)C2 (some centres not stated) | -1.69 | -1.607 | - | - | - | -12.96
Cc1ccc(CNCc2cc(Br)c3c(c2)OCO3)cc1 | 2.31 | 23.4 | 2.674 | 0.5236 | -3.881 | -2.378
CCc1nnc(CN2CCc3[nH]c(-c4ccc(OC)cc4)nc3C2)o1 | -2.085 | 14.06 | -1.093 | 12.28 | -3.938 | -
NC(=O)c1cnc(NC2CCN(C(=O)C3CC3)CC2)c(Cl)c1 | -1.732 | 7.081 | 3.784 | 24.66 | -2.053 | -7.095
CC(C)c1noc(C(C)N2CCN(CCO)CC2)n1 (configuration not stated) | -3.159 | 4.527 | 3.008 | 0 | 16.99 | -40.74
c1ccc(C2CCCN(Cc3cc4n(n3)CCNC4)CC2)cc1 (configuration not stated) | -5.814 | 58.47 | 14.92 | 15.62 | -3.922 | -12.25
CCc1cnc(N)nc1NCCCn1nc(C)nc1C | 4.911 | -8.184 | 4.545 | 3.333 | 9.643 | -25.59
O=C(c1ccco1)N1CCO[C@@H]2CNC[C@@H]21 | - | - | 0 | 0.9009 | 0.2543 | -
CCCn1ccnc1CN1C[C@@H](NC(C)=O)[C@H](c2ccc(C)cc2)C1 | -1.644 | 20.95 | 0.6494 | 16.13 | -4.437 | 6.27
CCS(=O)(=O)CCN1CCC(N(C)Cc2ncc(C)o2)C1 (configuration not stated) | 4.583 | 10.31 | 7.895 | 7.08 | -2.92 | -
O=C(O)C(F)(F)F.[H][C@@]12COC[C@]1(CNC(=O)c1ccco1)CN(Cc1cc(C)on1)C2 | -9.056 | -6.599 | - | - | - | -23.48
CN(CCOc1ccc(F)cc1)S(=O)(=O)c1cnn(C)c1 | 8.349 | -11.84 | -2.632 | 14.16 | 8.527 | -
Cc1csc(N2CCCN(C(=O)c3ccsc3)CC2)n1 | -1.125 | 5.029 | 12.07 | 16.96 | 6.75 | -35.16
CC(=O)N1CCCC1c1nc(C)cc(-c2ccc(F)cc2)n1 (configuration not stated) | -1.24 | 6.971 | 8.511 | 13.54 | 1.664 | 10.27
O=C(c1cccc2cc[nH]c12)N1CCC2(CCOC2)C1 (configuration not stated) | -2.841 | -65.97 | 10.97 | 5.051 | -2.539 | -1.685
COC(=O)CNC(=O)c1nc(Br)sc1C(C)C | 16.57 | -13.22 | 1.031 | 16.48 | 17.47 | -10.29
O[C@H]1Cc2ccccc2[C@H]1n1ccnc1-c1cc2n(n1)CCNC2 | 0.5345 | 24.23 | 0.9662 | 14.17 | -22.82 | -
CNC(=O)CN1CCC(NC(=O)Cc2ccc3c(c2)OCCO3)CC1 | -0.4614 | 15.52 | 4.035 | 12.5 | -31.64 | 5.015
Cc1nc(C(=O)N2CCCC2c2cncc(CN3CCCC3)n2)co1 (configuration not stated) | 8.924 | 16.43 | 1.149 | 2.857 | -12.42 | -18.08
Cc1cc(NCC2(O)CCOCC2)nc2ccccc12 | 5.865 | -20.81 | 3.279 | 13.7 | -2.04 | -1.897
CCOc1ccc(NC(=O)NCc2csc(NC)n2)cc1C | 6.677 | 38.18 | 11.11 | 30.77 | 1.471 | 22.59
Cc1cc(C)nc(N2CCC(NCCSc3nnnn3C)CC2)n1 | 7.7 | 5.424 | 9.412 | 21.43 | 4.649 | -56.56
CCN(C(=O)c1cnc(-c2ccc3c(c2)OCO3)s1)C1CC1 | 9.353 | 11.29 | 3.509 | 21.24 | -49.4 | -
COc1ccc(N(C)C(=O)c2ccc(Cl)c(S(C)(=O)=O)c2)cn1 | -10.85 | 9.029 | 7.778 | 16.24 | 2.146 | -20.38
CCCc1ccc(CN2CCC3(CCC(=O)N(CCCOC)C3)CC2)o1 | 21.52 | 7.608 | 3.478 | 11.67 | -9.208 | -41.92
CC(C)c1nc(CN(C)C(=O)CNC(N)=O)cs1 | 12.56 | 31.55 | 7.059 | 11.9 | -13.21 | -69.7